Assay results published in the M2OR odorant receptor database.
The entries are a selection whose mix differs from that of the whole data set. Calls are pooled over several reports, among them a noisy single-well screen. The list shows a part of the results.

Legend:
Settings in all cases: stereoisomer not certain
OR6C2 (Homo sapiens) = target: T1, OR6C2 (Homo sapiens) (UniProt Q9NZP2)
T1 sequence (whole entry): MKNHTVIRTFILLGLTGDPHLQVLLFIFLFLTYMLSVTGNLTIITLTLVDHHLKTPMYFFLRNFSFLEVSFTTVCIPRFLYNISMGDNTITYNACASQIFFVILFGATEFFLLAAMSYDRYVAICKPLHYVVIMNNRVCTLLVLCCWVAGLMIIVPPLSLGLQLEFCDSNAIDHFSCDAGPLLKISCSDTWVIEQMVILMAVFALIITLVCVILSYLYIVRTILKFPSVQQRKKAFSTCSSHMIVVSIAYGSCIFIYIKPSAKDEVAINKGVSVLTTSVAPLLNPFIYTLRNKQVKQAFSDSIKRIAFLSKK
How it was run: (§1)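 Whether a receptor–molecule pair is responsive (active) rests on the original authors' judgment that its measured signal was statistically different from baseline. Pairs without that judgment are non-responsive (inactive). Sources used varied assay methods, commonly transient luciferase assays in mammalian cell lines.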

OR6C3 (Homo sapiens) = target: T2, OR6C3 (Homo sapiens) (UniProt Q9NZP0)
T2 sequence (whole entry): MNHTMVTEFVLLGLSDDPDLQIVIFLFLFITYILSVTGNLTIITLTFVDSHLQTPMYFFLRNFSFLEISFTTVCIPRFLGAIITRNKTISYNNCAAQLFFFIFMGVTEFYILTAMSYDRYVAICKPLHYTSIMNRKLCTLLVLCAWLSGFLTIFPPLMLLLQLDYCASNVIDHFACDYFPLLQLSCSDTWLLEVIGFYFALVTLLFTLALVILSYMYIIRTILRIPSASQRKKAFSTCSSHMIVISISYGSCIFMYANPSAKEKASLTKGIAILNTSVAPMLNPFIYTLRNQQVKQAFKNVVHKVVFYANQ
How it was run: as §1

OR6C4 = tested on: T3, OR6C4
T3 sequence (whole entry): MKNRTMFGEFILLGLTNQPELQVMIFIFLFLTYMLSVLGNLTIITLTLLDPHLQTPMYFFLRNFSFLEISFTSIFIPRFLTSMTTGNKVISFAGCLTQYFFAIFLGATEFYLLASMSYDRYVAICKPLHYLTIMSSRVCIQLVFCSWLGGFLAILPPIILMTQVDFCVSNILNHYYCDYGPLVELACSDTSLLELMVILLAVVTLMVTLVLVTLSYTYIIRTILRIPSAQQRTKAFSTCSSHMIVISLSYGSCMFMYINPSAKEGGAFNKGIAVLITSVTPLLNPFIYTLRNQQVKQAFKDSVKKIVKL
How it was run: as §1

OR6C6 (Homo sapiens) = target: T4, OR6C6 (Homo sapiens) (UniProt A6NF89)
T4 sequence (whole entry): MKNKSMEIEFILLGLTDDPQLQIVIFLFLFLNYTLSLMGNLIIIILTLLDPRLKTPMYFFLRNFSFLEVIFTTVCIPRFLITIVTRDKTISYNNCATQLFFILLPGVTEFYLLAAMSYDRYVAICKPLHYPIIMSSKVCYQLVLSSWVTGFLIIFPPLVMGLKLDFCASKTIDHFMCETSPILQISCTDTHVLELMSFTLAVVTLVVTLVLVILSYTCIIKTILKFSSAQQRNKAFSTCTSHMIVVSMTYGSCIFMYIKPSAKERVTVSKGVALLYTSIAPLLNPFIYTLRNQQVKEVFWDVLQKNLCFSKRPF
How it was run: as §1

OR6C65 (Homo sapiens) = target: T5, OR6C65 (Homo sapiens) (UniProt A6NJZ3)
T5 sequence (whole entry): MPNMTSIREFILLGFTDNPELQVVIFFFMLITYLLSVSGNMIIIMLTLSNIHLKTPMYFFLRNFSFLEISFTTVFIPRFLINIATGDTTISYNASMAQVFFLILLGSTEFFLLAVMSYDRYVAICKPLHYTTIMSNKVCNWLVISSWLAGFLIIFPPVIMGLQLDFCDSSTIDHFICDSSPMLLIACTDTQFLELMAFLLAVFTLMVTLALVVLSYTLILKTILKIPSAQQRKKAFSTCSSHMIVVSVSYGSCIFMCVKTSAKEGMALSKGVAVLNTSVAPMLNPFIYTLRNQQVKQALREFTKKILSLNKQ
How it was run: as §1

OR6C74 (Homo sapiens) = target: T6, OR6C74 (Homo sapiens) (UniProt A6NCV1)
T6 sequence (whole entry): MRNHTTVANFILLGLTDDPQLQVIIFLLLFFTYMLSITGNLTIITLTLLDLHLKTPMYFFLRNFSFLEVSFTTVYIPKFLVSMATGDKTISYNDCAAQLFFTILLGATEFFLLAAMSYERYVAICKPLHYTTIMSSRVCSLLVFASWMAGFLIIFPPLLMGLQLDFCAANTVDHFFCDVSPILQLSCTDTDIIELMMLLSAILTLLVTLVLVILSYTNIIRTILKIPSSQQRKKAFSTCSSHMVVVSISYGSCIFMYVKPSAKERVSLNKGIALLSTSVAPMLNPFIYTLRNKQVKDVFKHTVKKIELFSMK
How it was run: as §1

OR6C75 (Homo sapiens) = target: T7, OR6C75 (Homo sapiens) (UniProt A6NL08)
T7 sequence (whole entry): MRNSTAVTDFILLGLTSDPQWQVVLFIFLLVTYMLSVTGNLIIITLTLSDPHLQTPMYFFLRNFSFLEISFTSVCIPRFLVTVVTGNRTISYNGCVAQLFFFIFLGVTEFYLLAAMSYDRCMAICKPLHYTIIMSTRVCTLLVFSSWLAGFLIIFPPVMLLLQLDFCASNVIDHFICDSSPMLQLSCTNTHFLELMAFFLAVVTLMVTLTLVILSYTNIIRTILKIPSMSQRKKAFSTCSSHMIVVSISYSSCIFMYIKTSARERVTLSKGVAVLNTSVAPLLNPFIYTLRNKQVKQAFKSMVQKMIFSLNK
How it was run: as §1

OR6C76 (Homo sapiens) = target: T8, OR6C76 (Homo sapiens) (UniProt A6NM76)
T8 sequence (whole entry): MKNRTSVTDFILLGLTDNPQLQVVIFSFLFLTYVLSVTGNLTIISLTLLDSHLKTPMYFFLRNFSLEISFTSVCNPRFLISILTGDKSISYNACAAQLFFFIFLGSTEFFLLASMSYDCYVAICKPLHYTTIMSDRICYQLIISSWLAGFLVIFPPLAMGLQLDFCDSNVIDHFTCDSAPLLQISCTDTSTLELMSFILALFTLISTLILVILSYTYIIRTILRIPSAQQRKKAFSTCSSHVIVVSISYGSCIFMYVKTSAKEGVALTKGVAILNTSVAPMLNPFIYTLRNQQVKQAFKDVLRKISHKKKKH
How it was run: as §1

OR6F1 (Homo sapiens) = target: T9, OR6F1 (Homo sapiens) (UniProt Q8NGZ6)
T9 sequence (whole entry): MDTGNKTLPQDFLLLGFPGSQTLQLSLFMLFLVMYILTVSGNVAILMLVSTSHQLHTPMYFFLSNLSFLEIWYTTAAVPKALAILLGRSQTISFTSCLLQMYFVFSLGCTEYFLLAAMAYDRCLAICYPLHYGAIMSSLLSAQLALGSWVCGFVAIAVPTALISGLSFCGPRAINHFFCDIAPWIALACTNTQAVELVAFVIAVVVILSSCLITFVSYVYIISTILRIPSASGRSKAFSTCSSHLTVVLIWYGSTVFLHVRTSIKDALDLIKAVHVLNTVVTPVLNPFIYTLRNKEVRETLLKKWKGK
How it was run: as §1

OR6J1 = tested on: T10, OR6J1
T10 sequence (whole entry): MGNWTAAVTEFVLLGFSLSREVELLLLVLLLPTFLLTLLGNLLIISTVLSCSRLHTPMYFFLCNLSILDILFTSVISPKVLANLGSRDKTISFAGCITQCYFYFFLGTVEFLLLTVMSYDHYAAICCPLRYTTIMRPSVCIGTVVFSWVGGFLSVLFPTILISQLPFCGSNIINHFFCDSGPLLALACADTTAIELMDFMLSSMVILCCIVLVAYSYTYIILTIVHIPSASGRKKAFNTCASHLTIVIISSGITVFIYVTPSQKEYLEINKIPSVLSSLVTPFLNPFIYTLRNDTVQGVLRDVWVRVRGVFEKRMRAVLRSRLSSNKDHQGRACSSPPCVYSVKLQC
How it was run: as §1

Measured: odorant receptor agonist call;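 also: active if original authors judged signal statistically different from baseline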

CCCCOC(C)=O
inactive: all assays above
